{"source": "paper PMC3978657", "about": "“Early Steps in Autophagy Depend on Direct Phosphorylation of Atg9 by the Atg1 Kinase” (Molecular Cell, 2014)", "binders": {"B1": {"name": "Atg17 (protein, UniProt Q06410 1-417)", "chain": "MNEADVTKFVNNARKTLTDAQLLCSSANLRIVDIKKKLSSWQLSISKLNFLIVGLRQQGKFLYTILKEGIGTKLIQKQWNQAVLVVLVDEMKYWQYEITSKVQRLDGIVNELSISEKDDTDPSKLGDYISRDNVNLLNDKLKEVPVIERQIENIKLQYENMVRKVNKELIDTKLTDVTQKFQSKFGIDNLMETNVAEQFSRELTDLEKDLAEIMNSLTQHFDKTLLLQDKKIDNDEREELFKVVQGDDKELYNIFKTLHEVIDDVDKTILNLGQFLQAKIKEKTELHSEVSEIINDFNRNLEYLLIFKDISNLIDSFKNSCTQDIQTTKELCEFYDNFEESYGNLVLEAKRRKDVANRMKTILKDCEKQLQNLDAQDQEERQNFIAENGTYLPETIWPGKIDDFSSLYTLNYNVKNP"}}, "biological_target": "T1, TAP-tagged wild-type Atg1 (genomically integrated) (S. cerevisiae) (UniProt P53104)", "T1 sequence": "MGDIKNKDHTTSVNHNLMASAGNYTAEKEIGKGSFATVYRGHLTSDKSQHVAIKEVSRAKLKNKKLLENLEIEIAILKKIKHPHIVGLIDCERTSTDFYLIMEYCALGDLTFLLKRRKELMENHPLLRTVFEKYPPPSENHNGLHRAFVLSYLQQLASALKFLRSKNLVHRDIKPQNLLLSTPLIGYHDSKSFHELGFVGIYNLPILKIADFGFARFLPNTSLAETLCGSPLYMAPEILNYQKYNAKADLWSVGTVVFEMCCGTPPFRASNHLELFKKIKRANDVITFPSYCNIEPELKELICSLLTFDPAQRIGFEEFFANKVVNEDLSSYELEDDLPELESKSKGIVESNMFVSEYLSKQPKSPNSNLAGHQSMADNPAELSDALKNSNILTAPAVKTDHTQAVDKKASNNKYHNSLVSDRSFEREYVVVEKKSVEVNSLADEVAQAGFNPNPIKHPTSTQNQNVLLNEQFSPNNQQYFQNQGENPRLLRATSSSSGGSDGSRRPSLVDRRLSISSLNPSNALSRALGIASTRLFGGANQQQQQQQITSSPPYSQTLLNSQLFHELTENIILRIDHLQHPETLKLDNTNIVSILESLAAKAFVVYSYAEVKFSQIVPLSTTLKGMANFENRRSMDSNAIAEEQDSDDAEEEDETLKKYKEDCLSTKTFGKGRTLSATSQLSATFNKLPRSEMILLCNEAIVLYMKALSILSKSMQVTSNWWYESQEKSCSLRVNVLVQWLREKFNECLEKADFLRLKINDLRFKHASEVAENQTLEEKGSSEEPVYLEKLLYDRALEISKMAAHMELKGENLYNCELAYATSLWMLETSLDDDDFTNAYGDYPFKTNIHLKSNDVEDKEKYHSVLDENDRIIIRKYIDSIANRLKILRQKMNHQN", "assay": "affinity purification with mass spectrometry; Atg1-TAP from rapamycin-treated yeast extract on IgG-coupled magnetic beads, 1 hr at 4°C, washed in lysis buffer (PBS, 10% glycerol, 0.5% Tween-20), eluted by TEV cleavage; silver-stained gel bands identified by mass spectrometry", "note": "Results are given in words; binding and its absence hold for the method and conditions named. In cells and extracts the contact can be indirect. These calls come from enrichment with a bait or labelling near it, and not all partners need be listed. Where a sequence is shown, tags or fusion partners need not be part of it."}
{"binder": "B1", "values": [{"measurement": "binding", "value": "binds"}]}
